In paper PMC3282686:
No constants are given. Whether binding was seen depends on the method and setting. Binding seen in cells or lysates may run through a third protein.

The chains behind the UniProt entries cited, without tags or fusion partners.
UniProt Q9UKV8: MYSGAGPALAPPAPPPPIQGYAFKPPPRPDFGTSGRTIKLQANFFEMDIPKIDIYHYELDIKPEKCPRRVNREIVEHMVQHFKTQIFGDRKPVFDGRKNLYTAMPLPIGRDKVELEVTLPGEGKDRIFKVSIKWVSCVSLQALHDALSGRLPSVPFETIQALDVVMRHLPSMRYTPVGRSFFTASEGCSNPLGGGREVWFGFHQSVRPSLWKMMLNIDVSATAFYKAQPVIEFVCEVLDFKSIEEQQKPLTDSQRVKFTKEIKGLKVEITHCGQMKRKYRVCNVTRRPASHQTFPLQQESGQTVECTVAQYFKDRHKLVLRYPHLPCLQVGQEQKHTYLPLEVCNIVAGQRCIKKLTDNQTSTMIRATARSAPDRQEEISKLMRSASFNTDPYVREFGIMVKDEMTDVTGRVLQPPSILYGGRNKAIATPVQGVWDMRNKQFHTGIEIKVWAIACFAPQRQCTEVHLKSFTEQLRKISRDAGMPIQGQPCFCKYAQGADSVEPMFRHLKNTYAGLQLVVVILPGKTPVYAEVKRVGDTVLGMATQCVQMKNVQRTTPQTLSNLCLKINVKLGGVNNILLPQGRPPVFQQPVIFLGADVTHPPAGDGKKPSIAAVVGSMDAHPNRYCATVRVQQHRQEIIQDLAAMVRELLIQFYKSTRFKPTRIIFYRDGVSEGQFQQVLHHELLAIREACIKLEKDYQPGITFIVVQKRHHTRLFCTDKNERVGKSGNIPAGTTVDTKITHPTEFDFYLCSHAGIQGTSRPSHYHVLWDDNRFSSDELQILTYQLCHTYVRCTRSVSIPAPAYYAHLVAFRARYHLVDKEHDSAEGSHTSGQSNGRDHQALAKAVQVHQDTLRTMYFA

Experiments:
Test in all cases: co-IP; endogenous proteins of cancer cells transfected with siH3 or siScb; precipitated with antibodies specific for RNA Pol II, TFIIB, Ago1 or Ago2 (unspecific IgG as control) on protein A-Sepharose beads; bound proteins released by boiling in SDS-PAGE loading buffer and analysed by western blot
[1] = molecular target: transcription factor II B (human (endogenous in PC-3, EJ and SGC-7901)) (UniProt Q00403)
[2] = molecular target: Argonaute 1 (human (endogenous in PC-3, EJ and SGC-7901)) (UniProt Q9UL18)
[3] = molecular target: Argonaute 2 (human (endogenous in PC-3, EJ and SGC-7901)) (UniProt Q9UKV8)

Substance | binding [1] | binding [2] | binding [3]
Argonaute 1 (from UniProt Q9UL18 1-857) | no binding |  | 
Argonaute 2 (from UniProt Q9UKV8 1-859) | no binding |  | 
transcription factor II B (from UniProt Q00403 1-316) |  | no binding | no binding
